Test results from patent EP0431076B1, “PENTACYCLIC TRITERPENOID COMPOUNDS AS TOPOISOMERASE INHIBITORS OR CELL DIFFERENTIATION INDUCERS” (RESEARCH TRIANGLE INSTITUTE, priority 1988, dated 1990).
Some of these results come from one statement about several compounds together.

Tested on: Topoisomerase II
Assay: Topoisomerase II inhibition, P4 unknotting assay
Assay type: biochemical, human
Settings: gel analysis, Figure 6

## CC(=O)O[C@@H]1CC[C@@]2(C)[C@@H](CC[C@]3(C)[C@@H]2CC=C2[C@@H]4CC(C)(C)CC[C@]4(C)CC[C@]23C)[C@@]1(C)C(=O)O [A-1, α-boswellic acid acetate]
  potency in topoisomerase II inhibition compared with standard VP-16 (in words): higher potency

## CC(=O)O[C@@H]1CC[C@@]2(C)[C@@H](CC[C@]3(C)[C@@H]2CC=C2[C@@H]4[C@@H](C)[C@H](C)CC[C@]4(C)CC[C@]23C)[C@@]1(C)C(=O)O [B-1, β-boswellic acid acetate]
  potency in topoisomerase II inhibition compared with standard VP-16 (in words): higher potency
